From PubChem BioAssay AID901 (National Center for Advancing Translational Sciences (NCATS), 2007)
The list shows a part of the results. These are further read-outs of the screen, such as a control signal, another cell line or another target. No call is given for them. The list favours compounds with an active or inconclusive main result. The note in brackets gives the kind of curve behind each potency; many fits are weak.

Assay: qHTS Assay for Identifying the Cell-Membrane Permeable IMPase Inhibitors
Settings: CHO-M1 cells, IP1 accumulation, HTRF TR-FRET ratio; measured here: donor channel 620 nm AC50
For CC1=C(C(=O)OC2CCCCCC2)C(c2ccccc2Cl)CC(=O)N1 (configuration not stated), the AC50 was 2.24 µM [falling, partial curve]. In the case of CC(C)OC(=O)c1c2nc3ccccc3nc2n2c1[nH]c(=O)c1ccccc12, the AC50 is reported as 25.1 µM [rising, single point]. With O=C(Nc1ccccc1C(F)(F)F)c1cc(S(=O)(=O)N2CCOCC2)ccc1F the AC50 was 0.2 µM [falling, full curve]. With Fc1cccc(Cl)c1Cc1noc(/C=C/c2ccccc2)n1 the AC50 was 5.01 µM [rising, partial curve, poor fit]. For NCCCS(=O)(=O)O, the AC50 was 0.0316 µM [falling, full curve, poor fit]. With Cc1ccn2c(Nc3ccc4c(c3)OCO4)c(-c3ccccn3)nc2c1 the AC50 was 35.5 µM [falling, partial curve]. For CCOc1ccc(-c2cc3nc(C4CCN(C(=O)OC(C)(C)C)CC4)c(C(=O)O)cn3n2)cc1, the AC50 was 1 µM [falling, partial curve]. For CC1CCCCN1C(=O)CSc1nc(-c2ccccc2)cc(=O)[nH]1 (configuration not stated), the AC50 was 0.00501 µM [falling, full curve]. For N#CC1=C2SCC(O)(c3ccccc3)N2C(=O)CC1c1cccs1 (configuration not stated), the AC50 was 10 µM [falling, partial curve, poor fit]. In the case of COC(=O)c1ccc(-c2nc3ccc(C)cc3o2)cc1, the AC50 is reported as 31.6 µM [rising, single point]. With CCCCN1CCCC[C@H]1C(=O)Nc1c(C)cccc1C the AC50 was 0.01 µM [falling, full curve, poor fit]. With N#Cc1ccc(NC(=O)C2CC(c3ccc(F)cc3)=NO2)cc1 (configuration not stated) the AC50 was 0.0251 µM [rising, full curve, poor fit]. With Cc1ccc(C2CC(c3ccccc3)=NN2C(=O)CSc2nnc(-c3ccc(Cl)cc3)o2)o1 (configuration not stated) the AC50 was 0.794 µM [falling, single point]. In the case of COc1ccccc1N1CCN(C(=O)c2ccc(N3CCCC3=O)cc2)CC1, the AC50 is reported as 3.16 µM [falling, full curve, poor fit]. With CCCc1cc(=O)oc2c(CN3CCCC3)c(O)ccc12 the AC50 was 15.8 µM [rising, single point]. For O=C1C2C(C(=O)N1CC1CCCO1)C1C=CC2C12CC2 (configuration not stated), the AC50 was 0.0316 µM [falling, full curve, poor fit]. With COc1ccc(Nc2nc(N)nc(CSc3nc4cc(OC)ccc4s3)n2)cc1 the AC50 was 35.5 µM [falling, single point]. For O=C(CSc1nc2ccccc2c(=O)[nH]1)c1ccccc1, the AC50 was 4.47 µM [falling, partial curve]. In the case of Cc1onc(-c2ccccc2)c1C(=O)Nc1ccc(S(=O)(=O)NC2=NCCCCC2)cc1, the AC50 is reported as 0.1 µM [falling, full curve, poor fit]. In the case of Cn1c(=O)c(=O)n(C)c2cc(NC(=O)c3ccccc3Br)ccc21, the AC50 is reported as 3.98 µM [falling, partial curve]. With COc1ccc(-c2cn3c(C)c(C(=O)Nc4ccncc4)sc3n2)cc1 the AC50 was 31.6 µM [rising, single point]. For CC(C)(CN1CCCCC1)NS(=O)(=O)c1ccc(Cl)cc1, the AC50 was 0.398 µM [falling, full curve, poor fit]. In the case of COc1ccc(CNc2nc(NCc3ccc(OC)c(OC)c3)n(C(=O)c3cccs3)n2)cc1OC, the AC50 is reported as 0.631 µM [rising, full curve]. For CCCCOC(=O)CSc1ncnc2sc3c(c12)CCC(C)C3 (configuration not stated), the AC50 was 35.5 µM [rising, single point]. With CCOc1cc(S(=O)(=O)N2CCC(Cc3ccccc3)CC2)c(OCC)cc1-n1cnnn1 the AC50 was 6.31 µM [falling, single point]. In the case of CCC(C)(C)n1nnnc1CN1CCN(C(c2ccccc2)c2ccccc2)CC1, the AC50 is reported as 14.1 µM [rising, single point]. With COc1ccc(C2N(c3cc(C)on3)C(=O)C3CCCN32)cc1OC (configuration not stated) the AC50 was 1 µM [rising, partial curve, poor fit]. With CC(=O)c1ccc(NC(=O)c2cn(-c3ccccc3)nc2-c2ccncc2)cc1 the AC50 was 31.6 µM [rising, single point]. For COc1ccccc1OCCSc1nc2ccccc2c(=O)[nH]1, the AC50 was 2.24 µM [rising, single point]. In the case of COCc1cc(=O)n2[nH]c(C)cc2n1, the AC50 is reported as 0.126 µM [rising, single point]. With CCn1cnc2sc(C(=O)N3CCN(Cc4ccc5c(c4)OCO5)CC3)c(C)c2c1=O the AC50 was 0.02 µM [rising, full curve, poor fit]. With O=C1Nc2ccccc2N(O)N1c1cc(-c2cccc(Cl)c2)no1 the AC50 was 31.6 µM [falling, single point]. With Cc1ccc(NCCC(=O)c2cccc([N+](=O)[O-])c2)c(C)c1 the AC50 was 0.794 µM [falling, full curve, poor fit]. With CCOc1ccccc1-c1n[nH]c(=S)o1 the AC50 was 12.6 µM [rising, single point]. With CCCn1c(=O)c(Cc2ccccc2)c(O)c2ccccc21 the AC50 was 0.01 µM [rising, full curve, poor fit]. In the case of CC1Cc2cc(/C(O)=C3/C(=O)C(=O)N(CCCn4ccnc4)C3c3ccco3)ccc2O1 (configuration not stated), the AC50 is reported as 0.794 µM [rising, partial curve, poor fit]. For CCNc1nc(C)c2cc(Br)c(=O)n(CC)c2n1, the AC50 was 1.26 µM [rising, full curve]. In the case of Cc1ccc(NCC(=O)N/N=C/c2cc3ccccc3nc2Cl)cc1, the AC50 is reported as 0.126 µM [rising, full curve]. In the case of CCOC(=O)c1ccccc1NC(=O)CC1SC(=NC)N(C)C1=O (configuration not stated), the AC50 is reported as 5.01 µM [falling, single point]. For CCOC(=O)c1ccc(NC(=O)CSc2nc(-c3ccc(OC)cc3)cc(C(F)(F)F)c2C#N)cc1, the AC50 was 0.0355 µM [falling, full curve]. In the case of Cc1ccc(NC(=O)Nc2cccc(C)n2)cc1, the AC50 is reported as 0.708 µM [falling, single point]. In the case of CC(C)NC(=O)c1sc2nc3c(c(-c4cccs4)c2c1N)CN(C)CC3, the AC50 is reported as 12.6 µM [falling, partial curve]. For O=C(CCS(=O)(=O)c1cccc2nonc12)N1CC(=O)N(CCc2ccccc2)C(=O)C1, the AC50 was 5.01 µM [falling, partial curve, poor fit]. With CCCC(=O)Nc1ccc(Cl)c(NC(=O)c2ccco2)c1 the AC50 was 0.2 µM [falling, full curve]. For Cc1ccc(Cn2c(C)cc3c(c2=O)C(c2cccs2)C(C#N)=C(N)O3)cc1 (configuration not stated), the AC50 was 31.6 µM [falling, single point]. In the case of Cc1c(Cl)cccc1-n1ccnc1SCC(=O)O, the AC50 is reported as 0.00398 µM [rising, full curve, poor fit]. With CC(=O)Nc1nc(C)c(-c2csc(Nc3ccc(O)cc3)n2)s1 the AC50 was 35.5 µM [falling, single point]. For CC(C)Sc1n[nH]c2nc3c(c(=O)n12)C1(CCCC1)Cc1ccccc1-3, the AC50 was 15.8 µM [falling, single point]. In the case of Cc1cccc(-n2ncc3c(N4CCCC4)ncnc32)c1, the AC50 is reported as 0.0316 µM [falling, full curve]. With CCOC(=O)c1cc(OC(=O)c2ccc(OC)cc2)n(-c2ccccc2)n1 the AC50 was 35.5 µM [rising, single point]. For COc1ccc(-c2nc(CS(=O)(=O)CC(=O)NCCc3cc(OC)ccc3OC)c(C)o2)cc1, the AC50 was 3.98 µM [falling, single point]. For O=C(NCCCn1ccnc1)c1ccc(Br)c(S(=O)(=O)N2CCOCC2)c1, the AC50 was 12.6 µM [rising, partial curve]. For CS(=O)(=O)N(CC(=O)NCCSCc1ccccc1)c1cc(C(F)(F)F)ccc1Cl, the AC50 was 35.5 µM [falling, single point]. For Cc1cc(NC(=O)CCC(=O)N(CC(=O)NC2CCCC2)Cc2ccccc2Cl)no1, the AC50 was 31.6 µM [falling, single point]. For C=CCc1ccccc1OCC(O)CN(C(C)C)C(C)C (configuration not stated), the AC50 was 0.316 µM [rising, full curve, poor fit]. With Fc1ccccc1Cn1nnc2c(NCCc3ccccn3)ncnc21 the AC50 was 20 µM [falling, single point]. For CCOC(=O)c1nn(-c2ccc(Cl)cc2)c2nc(-c3ccc(C)cc3)c(C#N)c(=O)n12, the AC50 was 31.6 µM [rising, single point]. In the case of CCCCCc1ccc(-c2ccc(C(=O)Oc3ccc(C(=O)OC)cc3)cc2)nc1, the AC50 is reported as 0.501 µM [falling, full curve]. With COc1ccc(CNc2oc(-c3cccc4ccccc34)nc2C#N)cc1 the AC50 was 11.2 µM [rising, partial curve, poor fit]. With COC(=O)c1ccc(NC(=O)CSc2nnc(CNc3ccc(F)cc3)n2C)cc1 the AC50 was 5.01 µM [rising, single point]. With CCOc1ccc(C(=O)NC(=S)Nc2ccccn2)cc1[N+](=O)[O-] the AC50 was 3.16 µM [falling, partial curve, poor fit]. With Cc1nc2c(C)cccc2cc1C(=O)N/N=C/c1ccc(N(C)C)cc1 the AC50 was 31.6 µM [falling, single point]. With COC(=O)c1ccccc1NC(=O)Cn1c(SC)c(F)cnc1=O the AC50 was 22.4 µM [falling, single point]. For CC(O)CNc1ncnc2nc[nH]c12 (configuration not stated), the AC50 was 0.398 µM [rising, partial curve, poor fit]. For CC(=O)c1sc(NC(=O)C2COc3ccccc3O2)nc1C (configuration not stated), the AC50 was 35.5 µM [rising, single point]. With CC(C)c1nc(-c2ccccn2)no1 the AC50 was 0.0631 µM [rising, full curve, poor fit]. In the case of Cc1ccc(C(=O)Nc2c(C(=O)NCc3ccco3)cnn2-c2ccccc2)cc1, the AC50 is reported as 6.31 µM [falling, full curve].
